Assay results taken from paper PMC9039064.

Amino acid sequences for entries named in this document (tags omitted). A change or cut given only in a name is not applied to a line headed by its entry.
UniProt Q00987: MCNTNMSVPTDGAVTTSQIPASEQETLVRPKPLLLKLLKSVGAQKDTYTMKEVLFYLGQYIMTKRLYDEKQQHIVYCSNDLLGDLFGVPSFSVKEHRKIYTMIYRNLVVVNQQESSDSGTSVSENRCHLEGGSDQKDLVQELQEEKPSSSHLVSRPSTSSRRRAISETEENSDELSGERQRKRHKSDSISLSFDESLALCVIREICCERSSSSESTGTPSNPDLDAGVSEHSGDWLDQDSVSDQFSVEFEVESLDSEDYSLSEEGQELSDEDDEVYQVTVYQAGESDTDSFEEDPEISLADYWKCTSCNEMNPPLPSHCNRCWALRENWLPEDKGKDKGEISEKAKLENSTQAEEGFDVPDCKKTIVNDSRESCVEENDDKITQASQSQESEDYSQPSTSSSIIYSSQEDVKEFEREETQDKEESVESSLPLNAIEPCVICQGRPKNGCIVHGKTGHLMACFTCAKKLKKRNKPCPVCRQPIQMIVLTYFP

Molecular target: T1, Flag-KL (Flag-tagged Klotho) (human) (UniProt Q9UEF7)
T1 sequence: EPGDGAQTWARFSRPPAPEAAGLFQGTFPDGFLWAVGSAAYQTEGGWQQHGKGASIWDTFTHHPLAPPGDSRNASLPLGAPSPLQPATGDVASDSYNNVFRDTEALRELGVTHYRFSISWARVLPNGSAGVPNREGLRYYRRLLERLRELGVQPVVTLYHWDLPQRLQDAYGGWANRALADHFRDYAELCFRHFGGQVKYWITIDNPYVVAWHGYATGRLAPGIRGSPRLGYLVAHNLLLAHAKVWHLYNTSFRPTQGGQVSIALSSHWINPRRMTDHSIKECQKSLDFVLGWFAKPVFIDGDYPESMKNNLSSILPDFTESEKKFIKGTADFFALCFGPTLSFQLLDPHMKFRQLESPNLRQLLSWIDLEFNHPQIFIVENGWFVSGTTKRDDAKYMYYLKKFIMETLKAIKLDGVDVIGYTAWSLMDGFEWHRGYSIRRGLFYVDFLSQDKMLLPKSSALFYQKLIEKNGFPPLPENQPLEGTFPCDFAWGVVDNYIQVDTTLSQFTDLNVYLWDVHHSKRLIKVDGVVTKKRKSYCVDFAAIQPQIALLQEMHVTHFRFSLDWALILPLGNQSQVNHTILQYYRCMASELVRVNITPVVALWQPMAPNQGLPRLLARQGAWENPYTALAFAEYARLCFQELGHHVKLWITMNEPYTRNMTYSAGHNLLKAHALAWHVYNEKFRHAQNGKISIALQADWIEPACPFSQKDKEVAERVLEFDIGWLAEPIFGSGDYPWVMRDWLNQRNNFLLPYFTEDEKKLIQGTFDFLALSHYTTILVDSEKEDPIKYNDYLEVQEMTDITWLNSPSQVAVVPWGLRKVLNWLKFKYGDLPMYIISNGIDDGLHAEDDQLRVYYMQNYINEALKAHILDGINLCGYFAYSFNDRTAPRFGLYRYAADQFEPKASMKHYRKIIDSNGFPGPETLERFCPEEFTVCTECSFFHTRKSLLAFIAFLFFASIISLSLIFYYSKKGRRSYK
Assay: co-IP; transfected A549 cells (the text says HEK-293 for Fig. 5A); lysate in TNE buffer or IP buffer (50 mM Tris-HCl, 2 mM EDTA, 250 mM NaCl, 10% glycerol, 0.5% NP-40); IP with anti-FLAG, anti-HA or anti-Myc and Protein G agarose overnight at 4 °C; immunoblot; some samples with SHANK1 overexpression, sh/si-SHANK1 or si-MDM2

binding: binds
Substance: MDM2-HA (from UniProt Q00987)

These are yes or no findings as the source states them, for the method shown. Binding seen in cells or lysates may run through a third protein. A result given as binding can be weak or reduced; the word gives no strength. Sequences can lack the tags named with a protein.
